# The list shows a part of the results.
# B1: PX9961W-pdi-543-27-543 (Parabacteroides distasonis) (protein)
# chain: EGNATTTSYFLNDQQAIDAIDGLYERFHQEGCYGRELFWEQGAACDIVWGRTRGYNSLATLAYTGDESPLRDVFSRMYSTMSRANWIIQELVKKEKGTTLTAVEKRSLGEAYFSRGWAHYLIAYRYGTDKQGVPFVRYEDFPDDYDNSIPPQQATVMDNYKLIIEDMDKAIAYLPIFESYDADNRGRAHQAAAVAFKAKTYAYWATWDATQWNNVIEMVNQLENNYNRDLAPTFAELFSSDLKDYWNAEYLWTIPSIGGALPGGTEFPGIILENKGWGKYNGWGQMKPSYDIYEEMAKDGKGNDRLVRSILEYNQEFPFFGETRKFWSTSDLEAGFMINKYMDAFKYSDPVGEGAVSANGDWPTVRVNFPIIRFAEMLLFRAEAYLMTGQADKATADINRIRLRSNLTPLTGTATMKDLYHERRCELAFEFTDHLFDLKRWNRSSNADIKTLADKELNAHPRIRRYEDRANPESAFTIIGYEDYTNKNAYQAHMMVFPYPSEEITKSNGQLKQNEGY
# How the values were obtained:
# Experiment in all cases: glycan array binding signal (z-score within array); higher = stronger binding
# Conditions in all cases: glycan notation: IUPAC condensed, linker removed
# Fuc(a1-2)Gal = biological target: Fuc(a1-2)Gal
# Outline: (§1)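 From the Consortium for Functional Glycomics database, 3228 arrays were curated, keeping only those whose protein sequence was available. Binding is given as a within-array Z-score averaged across arrays sharing a protein sequence and across linkers. Negative Z-scores can be read as non-binding.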
# Fuc(a1-2)Gal(b1-3)GalNAc = biological target: Fuc(a1-2)Gal(b1-3)GalNAc
# Outline: as §1
# [1] = biological target: Fuc(a1-2)Gal(b1-3)GalNAc(a1-3)[Fuc(a1-2)]Gal(b1-4)Glc
# Outline: as §1
# [2] = biological target: Fuc(a1-2)Gal(b1-3)GalNAc(a1-3)[Fuc(a1-2)]Gal(b1-4)GlcNAc
# Outline: as §1
# [3] = biological target: Fuc(a1-2)Gal(b1-3)GalNAc(b1-3)Gal
# Outline: as §1
# [4] = biological target: Fuc(a1-2)Gal(b1-3)GalNAc(b1-3)Gal(a1-4)Gal(b1-4)Glc
# Outline: as §1
# [5] = biological target: Fuc(a1-2)Gal(b1-3)GalNAc(b1-4)[Neu5Ac(a2-3)]Gal(b1-4)Glc
# Outline: as §1
# Fuc(a1-2)Gal(b1-3)GlcNAc = biological target: Fuc(a1-2)Gal(b1-3)GlcNAc
# Outline: as §1
# [6] = biological target: Fuc(a1-2)Gal(b1-3)GlcNAc(b1-2)Man(a1-3)[Fuc(a1-2)Gal(b1-3)GlcNAc(b1-2)Man(a1-6)]Man(b1-4)GlcNAc(b1-4)GlcNAc
# Outline: as §1
# [7] = biological target: Fuc(a1-2)Gal(b1-3)GlcNAc(b1-2)Man(a1-3)[Fuc(a1-2)Gal(b1-3)GlcNAc(b1-2)Man(a1-6)]Man(b1-4)GlcNAc(b1-4)[Fuc(a1-6)]GlcNAc
# Outline: as §1
# [8] = biological target: Fuc(a1-2)Gal(b1-3)GlcNAc(b1-3)Gal(b1-4)Glc
# Outline: as §1
# [9] = biological target: Fuc(a1-2)Gal(b1-3)GlcNAc(b1-3)GalNAc
# Outline: as §1
# [10] = biological target: Fuc(a1-2)Gal(b1-3)GlcNAc(b1-3)[Fuc(a1-2)Gal(b1-3)GlcNAc(b1-6)]GalNAc
# Outline: as §1
# [11] = biological target: Fuc(a1-2)Gal(b1-3)GlcNAc(b1-3)[Gal(b1-4)GlcNAc(b1-6)]Gal(b1-4)Glc
# Outline: as §1
# [12] = biological target: Fuc(a1-2)Gal(b1-3)GlcNAc(b1-3)[Neu5Ac(a2-6)Gal(b1-4)GlcNAc(b1-6)]Gal(b1-4)Glc
# Outline: as §1
# [13] = biological target: Fuc(a1-2)Gal(b1-3)GlcNAc6S
# Outline: as §1
# [14] = biological target: Fuc(a1-2)Gal(b1-3)[Fuc(a1-4)]GlcNAc
# Outline: as §1
# [15] = biological target: Fuc(a1-2)Gal(b1-3)[Fuc(a1-4)]GlcNAc(b1-2)Man(a1-3)[Fuc(a1-2)Gal(b1-3)[Fuc(a1-4)]GlcNAc(b1-2)Man(a1-3)]Man(b1-4)GlcNAc(b1-4)GlcNAc
# Outline: as §1
# [16] = biological target: Fuc(a1-2)Gal(b1-3)[Fuc(a1-4)]GlcNAc(b1-2)Man(a1-3)[Fuc(a1-2)Gal(b1-3)[Fuc(a1-4)]GlcNAc(b1-2)Man(a1-6)]Man(b1-4)GlcNAc(b1-4)[Fuc(a1-6)]GlcNAc(b1-4)[Fuc(a1-6)]GlcNAc
# Outline: as §1
# [17] = biological target: Fuc(a1-2)Gal(b1-3)[Fuc(a1-4)]GlcNAc(b1-3)[Fuc(a1-3)[Gal(b1-4)]GlcNAc(b1-6)]Gal(b1-4)Glc
# Outline: as §1
# [18] = biological target: Fuc(a1-2)Gal(b1-3)[Fuc(a1-4)]GlcNAc(b1-3)[Gal(b1-4)GlcNAc(b1-6)]Gal(b1-4)Glc
# Outline: as §1
# Fuc(a1-2)Gal(b1-4)Glc = biological target: Fuc(a1-2)Gal(b1-4)Glc
# Outline: as §1
# Fuc(a1-2)Gal(b1-4)Glc6S = biological target: Fuc(a1-2)Gal(b1-4)Glc6S
# Outline: as §1
# Fuc(a1-2)Gal(b1-4)GlcNAc = biological target: Fuc(a1-2)Gal(b1-4)GlcNAc
# Outline: as §1
# [19] = biological target: Fuc(a1-2)Gal(b1-4)GlcNAc(b1-2)Man
# Outline: as §1
# [20] = biological target: Fuc(a1-2)Gal(b1-4)GlcNAc(b1-2)Man(a1-3)[Fuc(a1-2)Gal(b1-4)GlcNAc(b1-2)Man(a1-6)]Man(b1-4)GlcNAc(b1-4)GlcNAc
# Outline: as §1
# [21] = biological target: Fuc(a1-2)Gal(b1-4)GlcNAc(b1-2)Man(a1-3)[Fuc(a1-2)Gal(b1-4)GlcNAc(b1-2)Man(a1-6)]Man(b1-4)GlcNAc(b1-4)[Fuc(a1-6)]GlcNAc
# Outline: as §1
# [22] = biological target: Fuc(a1-2)Gal(b1-4)GlcNAc(b1-2)[Fuc(a1-2)Gal(b1-4)GlcNAc(b1-4)]Man(a1-3)[Fuc(a1-2)Gal(b1-4)GlcNAc(b1-2)Man(a1-6)]Man(b1-4)GlcNAc(b1-4)GlcNAc
# Outline: as §1
# [23] = biological target: Fuc(a1-2)Gal(b1-4)GlcNAc(b1-3)Gal(b1-4)GlcNAc
# Outline: as §1
# [24] = biological target: Fuc(a1-2)Gal(b1-4)GlcNAc(b1-3)Gal(b1-4)GlcNAc(b1-2)Man(a1-3)[Fuc(a1-2)Gal(b1-4)GlcNAc(b1-3)Gal(b1-4)GlcNAc(b1-2)Man(a1-6)]Man(b1-4)GlcNAc(b1-4)GlcNAc
# Outline: as §1
binder,measurement,setting,value
B1,glycan array binding signal (z-score),Fuc(a1-2)Gal,-0.07
same,glycan array binding signal (z-score),Fuc(a1-2)Gal(b1-3)GalNAc,-0.751
same,glycan array binding signal (z-score),[1],-0.004
same,glycan array binding signal (z-score),[2],0.334
same,glycan array binding signal (z-score),[3],0.732
same,glycan array binding signal (z-score),[4],-0.337
same,glycan array binding signal (z-score),[5],-0.392
same,glycan array binding signal (z-score),Fuc(a1-2)Gal(b1-3)GlcNAc,-0.404
same,glycan array binding signal (z-score),[6],1.64
same,glycan array binding signal (z-score),[7],-0.254
same,glycan array binding signal (z-score),[8],-1.01
same,glycan array binding signal (z-score),[9],-0.213
same,glycan array binding signal (z-score),[10],-0.089
same,glycan array binding signal (z-score),[11],1.74
same,glycan array binding signal (z-score),[12],0.178
same,glycan array binding signal (z-score),[13],-0.369
same,glycan array binding signal (z-score),[14],-0.476
same,glycan array binding signal (z-score),[15],0.3
same,glycan array binding signal (z-score),[16],0.172
same,glycan array binding signal (z-score),[17],-0.034
same,glycan array binding signal (z-score),[18],-0.805
same,glycan array binding signal (z-score),Fuc(a1-2)Gal(b1-4)Glc,0.505
same,glycan array binding signal (z-score),Fuc(a1-2)Gal(b1-4)Glc6S,-0.328
same,glycan array binding signal (z-score),Fuc(a1-2)Gal(b1-4)GlcNAc,-0.724
same,glycan array binding signal (z-score),[19],-0.149
same,glycan array binding signal (z-score),[20],0.285
same,glycan array binding signal (z-score),[21],0.061
same,glycan array binding signal (z-score),[22],-0.27
same,glycan array binding signal (z-score),[23],-0.321
same,glycan array binding signal (z-score),[24],0.321

# A portion from the list above:
binder,measurement,setting,value
B1,glycan array binding signal (z-score),[22],-0.27
same,glycan array binding signal (z-score),[23],-0.321
